# Screening data

Source: PubChem BioAssay AID530 (NCATS, 2006).

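Mouse JNK3 kinase in lysate of cytokine-stimulated human HepG2 cells; biotin-c-Jun phosphorylation read by AlphaScreen luminescence after a 2 h reaction and 3 h bead step. Each compound ran as a dilution series from about 0.6 nM up to 57.1 µM. Fitted AC50 for either an inhibiting or an activating curve; a lower value means greater potency. Calls come from the fitted dose curve (inhibitor, activator, inactive or inconclusive); every row here is inconclusive, including some full curves, so the exact cut-off is unclear.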

Values are in µM. Every entry below has the call inconclusive. Only part of the assay is shown, chiefly results filed as inconclusive. A potency from a partial, single-point or poor curve is only a rough figure. The first word of each remark tells which way the curve ran; it can be opposite to the aim of the assay.

With C/C(O)=C(/C#N)C(=O)Nc1cc(Br)ccc1Br the assay gave potency 39.81 µM (inhibitor, partial curve, poor fit). For COC(=O)[C@@]1(Cc2ccc(OC)cc2)[C@H]2c3cc(C(=O)N4CCCC4)n(CCCNc4ncc(C(F)(F)F)cc4Cl)c3C[C@H]2CN1C(=O)c1ccccc1 the result was potency 19.95 µM (inhibitor, single point). For C[C@]12CC[C@H](O)C[C@@H]1CC[C@H]1[C@H]2CC[C@]2(C)[C@H](C(=O)CO)CC[C@@H]12 the result was potency 25.12 µM (activator, partial curve, poor fit). Result for C=C(Cl)CSC(=S)N(CC)CC was potency 12.59 µM (activator, full curve, poor fit).

NCCC[C@@H](CC(=O)N[C@@H]1CCCC[C@H]1C(=O)N[C@H](CC(=O)N[C@@H](CCC(=O)O)CC(=O)O)Cc1ccccc1)NC(=O)C[C@H](Cc1ccccc1)NC(=O)[C@@H]1CCCC[C@H]1N gave potency 2.512 µM (inhibitor, full curve, poor fit). Cc1scc2c1N(C(=O)CN1CCN(C)CC1)c1ccccc1NC2=O gave potency 31.62 µM (activator, partial curve, poor fit). CC(C)N(CCC(=O)c1ccc2ccccc2c1)Cc1ccccc1 gave potency 39.81 µM (inhibitor, partial curve, poor fit). With Cc1cc(N)c2ccccc2[n+]1CCCCCCCCCC[n+]1c(C)cc(N)c2ccccc21 the assay gave potency 39.81 µM (inhibitor, single point).

With O=S(=O)(c1cccc2cnccc12)N1CCCNCC1 the assay gave potency 15.85 µM (inhibitor, partial curve, poor fit). Result for CCC[C@@H]1C[C@@]1(CCC)C(NC(=O)OCc1ccccc1)c1ccc(-c2ccccc2)cc1 (stereo partly shown) was potency 31.62 µM (activator, single point). For O.O.O.O.O.O.O.O=S(=O)([O-])[O-].[Co+2] the result was potency 39.81 µM (inhibitor, single point). With CC(C)C[C@@H](CC(=O)N[C@@H](CCC(=O)O)CC(=O)O)NC(=O)[C@@H]1CCCC[C@H]1NC(=O)C[C@H](CCCN)NC(=O)C[C@H](CO)NC(=O)[C@@H]1CCCC[C@H]1N the assay gave potency 15.85 µM (inhibitor, partial curve, poor fit).

Cc1ccc(S(=O)(=O)NCc2ccccc2)cc1 read potency 0.01995 µM (activator, full curve, poor fit). For Cc1cc(C)cc(OP(=O)(Oc2cc(C)cc(C)c2)Oc2cc(C)cc(C)c2)c1 the result was potency 31.62 µM (activator, partial curve). Clc1ccc([C@@H](c2ccccc2Cl)C(Cl)Cl)cc1 gave potency 12.59 µM (activator, partial curve). Result for COc1cc([C@H](O)CO)ccc1O was potency 25.12 µM (activator, partial curve, poor fit).

c1ccc2c(c1)CCC[C@H]2C1=NCCN1 gave potency 19.95 µM (activator, partial curve, poor fit). CC(C)(C)c1cc(O)c(C(C)(C)C)cc1O gave potency 31.62 µM (inhibitor, partial curve, poor fit). With Cn1ccc2cc(NC(=O)Nc3cccnc3)ccc21 the assay gave potency 63.1 µM (inhibitor, partial curve, poor fit). For CC(C)C[C@@H](CC(=O)N[C@@H](CCCN)CC(=O)N[C@@H]1CCNC[C@H]1C(=O)N[C@H](CC(=O)N[C@@H](CCC(=O)O)CC(=O)O)Cc1ccccc1)NC(=O)[C@@H]1CCCC[C@H]1N the result was potency 3.981 µM (inhibitor, full curve, poor fit).

The first 2 entries again:

| compound | potency (µM) | remark |
|---|---|---|
| `C/C(O)=C(/C#N)C(=O)Nc1cc(Br)ccc1Br` | 39.81 | inhibitor, partial curve, poor fit |
| `COC(=O)[C@@]1(Cc2ccc(OC)cc2)[C@H]2c3cc(C(=O)N4CCCC4)n(CCCNc4ncc(C(F)(F)F)cc4Cl)c3C[C@H]2CN1C(=O)c1ccccc1` | 19.95 | inhibitor, single point |